PubChem BioAssay AID1508597 | Cure First – 2020
Assay: 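Knock-downs altering ovarian cancer cell survival with or without PARP inhibitor rucaparib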 (primary screen). System: human ovarian carcinoma lines grown from tumours: OCI-P5x (papillary serous) and OCI-C5x (clear cell). Knock-down reagent: siRNA pool against human genes, 1.25 pmol siRNA per well. Timing: 72 h or 96 h, depending on the cell culture. Challenge: rucaparib 20 µM (about IC30) or vehicle, present until read-out. Measurement: 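ATP luminescence measured at 72 or 96 h according to the culture, then normalised and expressed as percent viability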. Direction: viability, normalised: higher = more viable cells remaining. Hit rule: 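a well counts as a hit if its normalised viability is under 80 percent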. Calls: active = viability under 80%; inactive = viability 80% or more.
The deposit covers about 2,100 reagents; shown is a part drawn at random. 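Calls flag viability under 80% in either arm, not effects specific to rucaparib; the reference for percent is not stated.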 Not given: the 100% reference.

For H4C4 (GeneID 8360), rucaparib or vehicle Rucaparib, cell line OCI-C5x (clear cell), technical replicate 1, the entry reads viability, normalised (%) = 42.9; active.
H4C4 (GeneID 8360), rucaparib or vehicle Rucaparib, cell line OCI-C5x (clear cell), technical replicate 2 showed viability, normalised (%) = 34.7; active.
H4C4 (GeneID 8360), rucaparib or vehicle Rucaparib, cell line OCI-C5x (clear cell), technical replicate 3 scored viability, normalised (%) = 42.9; active.
With H4C4 (GeneID 8360), rucaparib or vehicle Rucaparib, cell line OCI-P5x (serous), technical replicate 1, the values are viability, normalised (%) = 39.2; active.
With H4C4 (GeneID 8360), rucaparib or vehicle Rucaparib, cell line OCI-P5x (serous), technical replicate 2 the deposit lists viability, normalised (%) = 46.7; active.
H4C4 (GeneID 8360), rucaparib or vehicle Rucaparib, cell line OCI-P5x (serous), technical replicate 3 scored viability, normalised (%) = 52; active.
With H4C4 (GeneID 8360), rucaparib or vehicle Vehicle, cell line OCI-C5x (clear cell), technical replicate 1, the entry reads viability, normalised (%) = 46.6; active.
For H4C4 (GeneID 8360), rucaparib or vehicle Vehicle, cell line OCI-C5x (clear cell), technical replicate 2, the values are viability, normalised (%) = 50.2; active.
H4C4 (GeneID 8360), rucaparib or vehicle Vehicle, cell line OCI-C5x (clear cell), technical replicate 3 scored viability, normalised (%) = 39.5; active.
For H4C4 (GeneID 8360), rucaparib or vehicle Vehicle, cell line OCI-P5x (serous), technical replicate 1 the deposit lists viability, normalised (%) = 51.3; active.
For H4C4 (GeneID 8360), rucaparib or vehicle Vehicle, cell line OCI-P5x (serous), technical replicate 2 the deposit lists viability, normalised (%) = 48.2; active.
For H4C4 (GeneID 8360), rucaparib or vehicle Vehicle, cell line OCI-P5x (serous), technical replicate 3 the deposit lists viability, normalised (%) = 53.7; active.
With CHMP2B (GeneID 25978), rucaparib or vehicle Rucaparib, cell line OCI-C5x (clear cell), technical replicate 1 the deposit lists viability, normalised (%) = 52.1; active.
With CHMP2B (GeneID 25978), rucaparib or vehicle Rucaparib, cell line OCI-C5x (clear cell), technical replicate 2 the deposit lists viability, normalised (%) = 44.2; active.
CHMP2B (GeneID 25978), rucaparib or vehicle Rucaparib, cell line OCI-C5x (clear cell), technical replicate 3 scored viability, normalised (%) = 40.7; active.
For CHMP2B (GeneID 25978), rucaparib or vehicle Rucaparib, cell line OCI-P5x (serous), technical replicate 1 the deposit lists viability, normalised (%) = 74.6; active.
For CHMP2B (GeneID 25978), rucaparib or vehicle Rucaparib, cell line OCI-P5x (serous), technical replicate 2, the values are viability, normalised (%) = 87.5; inactive.
CHMP2B (GeneID 25978), rucaparib or vehicle Rucaparib, cell line OCI-P5x (serous), technical replicate 3 showed viability, normalised (%) = 74.7; active.
CHMP2B (GeneID 25978), rucaparib or vehicle Vehicle, cell line OCI-C5x (clear cell), technical replicate 1 gave viability, normalised (%) = 42.5; active.
For CHMP2B (GeneID 25978), rucaparib or vehicle Vehicle, cell line OCI-C5x (clear cell), technical replicate 2, the values are viability, normalised (%) = 40.1; active.
With CHMP2B (GeneID 25978), rucaparib or vehicle Vehicle, cell line OCI-C5x (clear cell), technical replicate 3 the deposit lists viability, normalised (%) = 42.3; active.
CHMP2B (GeneID 25978), rucaparib or vehicle Vehicle, cell line OCI-P5x (serous), technical replicate 1 showed viability, normalised (%) = 78; active.
With CHMP2B (GeneID 25978), rucaparib or vehicle Vehicle, cell line OCI-P5x (serous), technical replicate 2 the deposit lists viability, normalised (%) = 79.5; active.
CHMP2B (GeneID 25978), rucaparib or vehicle Vehicle, cell line OCI-P5x (serous), technical replicate 3 scored viability, normalised (%) = 70.6; active.

Laid out differently: results already given.
{"target gene": "H4C4 (GeneID 8360)", "rucaparib or vehicle": "Vehicle", "cell line": "OCI-P5x (serous)", "technical replicate": "3", "viability, normalised (%)": 53.7, "activity call": "active"}
{"target gene": "CHMP2B (GeneID 25978)", "rucaparib or vehicle": "Rucaparib", "cell line": "OCI-C5x (clear cell)", "technical replicate": "1", "viability, normalised (%)": 52.1, "activity call": "active"}
{"target gene": "CHMP2B (GeneID 25978)", "rucaparib or vehicle": "Rucaparib", "cell line": "OCI-C5x (clear cell)", "technical replicate": "2", "viability, normalised (%)": 44.2, "activity call": "active"}
